PubChem BioAssay AID493014 (National Center for Advancing Translational Sciences (NCATS), 2011)
This is one part of the list. Shown are side measurements of this screen, not its main read-out; they come without a call. The list favours compounds with an active or inconclusive main result. Potencies come from curve fits of mixed quality, noted in brackets.

Test: qHTS Assay to Find Inhibitors of Chronic Active B-Cell Receptor Signaling
Conditions: ABC-DLBCL IkBa-CBG/CBR reporter, luminescence ratio (green luciferase fused to IkBa over red control in TMD8 lymphoma cells), 4 h
Procedure, shortened: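 Compounds up to 46 uM were incubated four hours with TMD8 cells whose green CBG68 luciferase is fused to IkappaBalpha; red CBR luminescence normalised the signal, and concentration-effect curves were fitted to fusion, red and ratio data.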

[1] = measured here: CBR red luminescence, cell number
[2] = measured here: IkBa-CBG green luminescence

Compound: CSc1cccc(NC(=O)C(C)C)c1
- AC50 [1]: 35.5 µM [rising, single point]

Compound: CCOC(=O)c1sc(NCCNc2nc(C)c(C(=O)OCC)s2)nc1C
- AC50 [1]: 28.2 µM [falling, partial curve, poor fit]

Compound: Cc1cc(C)c(NC(=O)c2ccc(S(=O)(=O)N(C)C)cc2)c(C)n1
- AC50 [1]: 25.9 µM [rising, single point]

Compound: COc1ccc(/C=N/Nc2nc(C)cc(-c3ccccc3)n2)cc1OC
- AC50 [1]: 14.1 µM [falling, partial curve, poor fit]

Compound: COc1cccc2sc(N(CCCN(C)C)C(=O)CCS(=O)(=O)c3ccccc3)nc12
- AC50 [1]: 20 µM [falling, partial curve, poor fit]

Compound: N/C(=N\OC(=O)CCc1ccccc1)c1cccc(Br)c1
- AC50 [1]: 0.708 µM [rising, full curve]

Compound: COc1ccc(OCC(=O)Nc2cccc(NC(=O)c3ccco3)c2)cc1
- AC50 [1]: 1 µM [falling, full curve, poor fit]

Compound: Cc1ccc(OC(=O)c2ccccc2C(=O)OCC(F)(F)C(F)F)cc1
- AC50 [1]: 29.1 µM [rising, single point]

Compound: C=CCc1cc(Cl)ccc1OCCOCCNC(C)CC (configuration not stated)
- AC50 [1]: 22.4 µM [falling, single point]

Compound: Cc1cccc2nc(COc3ccc(Cl)c4cccnc34)cn12
- AC50 [1]: 12.6 µM [falling, partial curve, poor fit]

Compound: O=C(Nc1ccccc1C(=O)O)c1cc(S(=O)(=O)N2CCCCC2)c(Cl)cc1Cl
- AC50 [1]: 2.82 µM [falling, full curve, poor fit]

Compound: CC(C)(C)NC(=O)c1cccc2c1OC(C)(C)C2
- AC50 [1]: 10.3 µM [rising, partial curve, poor fit]

Compound: CCN(Cc1ccc(OC)c(F)c1)C(C)C(=O)Nc1ccc(S(=O)(=O)N2CCCC2)cc1 (configuration not stated)
- AC50 [1]: 7.31 µM [rising, partial curve, poor fit]

Compound: S=C(NCCc1ccc(Cl)cc1)NCc1ccccc1
- AC50 [1]: 15.8 µM [falling, partial curve, poor fit]

Compound: O=C(NCCc1ccc2c(c1)OCCO2)c1ccccn1
- AC50 [1]: 15.8 µM [falling, single point]

Compound: O=C(NCCN1CCOCC1)c1cc(-c2ccc(Br)cc2)on1
- AC50 [1]: 6.31 µM [rising, full curve]

Compound: Cc1ccc(CNc2oc(-c3ccco3)nc2S(=O)(=O)c2ccccc2)cc1
- AC50 [1]: 29.1 µM [falling, single point]

Compound: Cc1ccc2c(c1)C(=O)C(=O)N2CCOc1ccccc1
- AC50 [1]: 3.98 µM [rising, full curve]
- AC50 [2]: 11.2 µM [falling, partial curve]

Compound: CN1C(=O)Cc2cc(S(=O)(=O)NCc3cccs3)ccc21
- AC50 [1]: 20 µM [falling, single point]

Compound: O=C(c1ccc2noc(-c3ccccc3)c2c1)N1CCN(c2ccccc2)CC1
- AC50 [1]: 18.4 µM [falling, single point]

Compound: O=C(O)C(c1ccccc1)N1C(=O)/C(=C/c2cccs2)SC1=S (configuration not stated)
- AC50 [1]: 2.82 µM [falling, single point]

Compound: COc1cccc(CNC2CCCCCCC2)c1OC
- AC50 [1]: 25.1 µM [rising, partial curve, poor fit]

Compound: COc1ccc(OC)c(NC(=O)c2cc(-c3ccc(C)cc3O)n[nH]2)c1
- AC50 [1]: 14.6 µM [falling, partial curve, poor fit]

Compound: COc1cc(/C=N/O)ccc1Oc1cnccn1
- AC50 [1]: 0.708 µM [falling, partial curve, poor fit]

Compound: O=C(NCCSc1ncc(-c2ccc(F)cc2)[nH]1)c1ccc2c(c1)OCO2
- AC50 [1]: 2.06 µM [rising, full curve, poor fit]

Compound: Clc1ccccc1OCc1nc(-c2ccccn2)no1
- AC50 [1]: 14.6 µM [falling, single point]

Compound: CCOc1cc2c(cc1OCC)C(c1ccccc1)N(c1ccc(C(=O)O)cc1)C(=O)C2 (configuration not stated)
- AC50 [2]: 17.8 µM [rising, partial curve, poor fit]

Compound: COc1ccccc1NC(=S)NNC(=O)c1nn(C)c(C)c1Br
- AC50 [1]: 7.31 µM [falling, partial curve]

Compound: Brc1ccc(-c2ncc(-c3ccccc3)cn2)cc1
- AC50 [1]: 29.1 µM [falling, single point]

Compound: COc1ccc(S(=O)(=O)N2CCCCC2)cc1NC(=O)COc1ccccc1
- AC50 [1]: 29.1 µM [falling, single point]

Compound: CCOC(=O)c1sc(NC(=O)CSc2nnnn2-c2ccccc2)c(C(=O)OCC)c1C
- AC50 [1]: 6.31 µM [rising, partial curve, poor fit]

Compound: Fc1cccc(-c2nc(-c3ccncc3)no2)c1
- AC50 [1]: 4.47 µM [rising, single point]

Compound: Cc1cccc(OCC(=O)Nc2ccc3c(c2)C(=O)NC3=O)c1
- AC50 [1]: 3.55 µM [falling, partial curve, poor fit]

Compound: CCOc1ncccc1C(=O)NNC(=O)c1ccc(NS(=O)(=O)c2cccs2)cc1
- AC50 [1]: 20.6 µM [falling, single point]

Compound: C=CCNc1oc(-c2ccc(-c3ccccc3)cc2)nc1C#N
- AC50 [2]: 3.26 µM [falling, full curve]

Compound: Cc1ccc(SC(C)C(=O)Nc2ccccc2C(=O)N2CCOCC2)cc1 (configuration not stated)
- AC50 [1]: 32.6 µM [rising, single point]

Compound: O=C(CCCN1C(=O)/C(=C/c2cccs2)SC1=S)NNC(=O)c1cccnc1
- AC50 [1]: 4.47 µM [falling, partial curve]

Compound: C=CCNC(=O)c1ccccc1NC(=O)Nc1ccccc1
- AC50 [1]: 9.2 µM [falling, partial curve]

Compound: Brc1ccc(CN2C3=NCCCN3c3ccccc32)cc1
- AC50 [1]: 29.1 µM [falling, single point]

Compound: COc1ccc2c(c1)C(C)=CC(C)(C)N2S(=O)(=O)c1ccc(C)cc1
- AC50 [1]: 5.01 µM [rising, full curve]
- AC50 [2]: 3.55 µM [falling, full curve]

Compound: CCNc1ccc(N=Nc2c(C)n(C)n(-c3ccccc3)c2=O)cc1
- AC50 [2]: 14.1 µM [falling, partial curve, poor fit]

Compound: COc1cccc(CN(C)CC(=O)NC(=O)NCc2ccco2)c1
- AC50 [1]: 16.4 µM [rising, partial curve, poor fit]

Compound: COc1ccc(OC)c(-c2cc(C(=O)N3CCCc4ccccc43)no2)c1
- AC50 [1]: 20 µM [falling, partial curve, poor fit]

Compound: Cc1nc(N)sc1-c1csc(Nc2ccc(S(N)(=O)=O)cc2)n1
- AC50 [1]: 10 µM [falling, partial curve, poor fit]

Compound: COC(=O)c1nc(NC(=S)NC(=O)c2cccs2)sc1C
- AC50 [1]: 5.01 µM [falling, partial curve, poor fit]

Compound: CCc1cccc(CC)c1N(COC)C(=O)Cn1c(C(C)O)nc2ccccc21 (configuration not stated)
- AC50 [1]: 35.5 µM [falling, single point]

Compound: O=C(NOCc1ccccc1)c1ccc(Cl)cc1
- AC50 [1]: 11.6 µM [falling, partial curve]

Compound: C=COCCNC(=O)Nc1ccc(Cl)c(Cl)c1
- AC50 [1]: 13 µM [falling, partial curve]

Compound: NC(=O)c1ccc(NC(=O)COc2cccc3c2CCNC3=O)cc1
- AC50 [1]: 20.6 µM [rising, partial curve, poor fit]

Compound: N#Cc1ccc(N2Cc3ccccc3C2=NC(=O)c2cccs2)cc1
- AC50 [1]: 2.59 µM [rising, partial curve, poor fit]

Compound: O=C(Nc1ccc(Cl)cc1)Nc1cc(S(=O)(=O)N2CCOCC2)ccc1N1CCCC1
- AC50 [1]: 16.4 µM [rising, partial curve]

Compound: COc1cc(-c2nc(-c3cccc(C)c3)no2)cc(OC)c1OC
- AC50 [1]: 7.31 µM [rising, partial curve, poor fit]

Compound: CCOc1ccc(C(=O)/C=C/c2cc(OC)c(OC)c(OC)c2)cc1
- AC50 [1]: 10 µM [falling, partial curve]

Compound: CCOc1ccc2ccccc2c1/C=N\NC(=O)c1ccc([N+](=O)[O-])cc1
- AC50 [1]: 1.78 µM [rising, full curve, poor fit]

Compound: CCOC(=O)C1=C(c2ccccc2)NC(N)=NC1c1ccc(OCc2ccc(C(=O)OC)cc2)cc1 (configuration not stated)
- AC50 [1]: 17.8 µM [falling, single point]

Compound: COc1ccc(-n2cc(CNC3CCN(C)CC3)c(-c3cccc(F)c3)n2)cc1
- AC50 [1]: 7.08 µM [falling, full curve, poor fit]

Compound: CCOc1ccc(S(=O)(=O)Nc2cc(C)ccn2)c2ccccc12
- AC50 [1]: 32.6 µM [falling, partial curve, poor fit]

Compound: COc1ccc(-c2cnnn2-c2ccc(NC(=O)c3ccco3)cc2)cc1OC
- AC50 [1]: 3.55 µM [rising, single point]
- AC50 [2]: 10 µM [falling, partial curve, poor fit]

Compound: O=C(Nc1ccccc1F)c1ccc2snnc2c1
- AC50 [1]: 14.1 µM [falling, partial curve]

Compound: O=C(Nc1nc(-c2cccs2)cs1)c1cccc(S(=O)(=O)N2CCCCC2)c1
- AC50 [1]: 14.6 µM [falling, partial curve]

Compound: COc1ccc(C)c2sc(N(CCCN(C)C)C(=O)c3ccc4c(c3)OCCO4)nc12
- AC50 [1]: 25.9 µM [falling, single point]

Compound: COc1cccc(/C=C2/Sc3ccc(C(=O)NCCCN4CCCC4)cc3NC2=O)c1
- AC50 [1]: 3.16 µM [falling, partial curve, poor fit]

Compound: O=C(Nc1ccccc1)/C(=C/c1ccccc1)c1ccccc1
- AC50 [1]: 2.82 µM [falling, single point]

Compound: Cc1[nH]nc2c1-c1nc3ccccc3nc1C(C)(C)C2
- AC50 [1]: 31.6 µM [falling, single point]
